Test results: PubChem BioAssay AID651640 (Broad Institute, 2012)
In all, about 350,000 compounds went through this assay and about 6,000 (1.7%) were called active. Inconclusive means that the source gave no clear call. Such entries were picked first, then a sample of the others. Rule as the data show it: active = CPE inhibition above about 20% (passing the limit was not always enough); inconclusive = no clear call, values can overlap the other calls; tested in BHK-21 cells.

Assay: protection of cells from dengue 2 killing – plate reader, single concentration, primary screen (AID 651640);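 also: 0% = median of neutral control wells and 100% = median of positive control wells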
Details: DENV2-infected cells, cytopathic effect rescue, at 9.99 µM, active compounds read high

| Structure (SMILES) | CPE inhibition |
| --- | --- |
| CCOC(=O)/C(C#N)=C1\CC2CCC1(C)C2(C)C (stereo not given) | inconclusive: 22.9% |
| COc1ccc(Cl)cc1N1C(=O)CN(Cc2cc(OC)c(OC)c(OC)c2)C1=S | inconclusive: 29.4% |
| C[C@@H]1CCCCO[C@H](CN(C)C(=O)Cc2ccccc2)[C@@H](C)CN([C@@H](C)CO)C(=O)c2cc(NC(=O)Nc3ccc(C(F)(F)F)cc3)ccc2O1 | inconclusive: 31% |
| O=C(NC1CCCC1)c1ccc([N+](=O)[O-])s1 | inactive: -3.6% |
| C[C@@H]1CN([C@H](C)CO)C(=O)c2cc(C#Cc3ccccc3)cnc2O[C@H]1CN(C)C(=O)CN(C)C | inconclusive: 33.9% |
| Cc1ccc(-c2nc3ccc(Br)cn3c2Cc2ccccc2C(F)(F)F)cc1 | inconclusive: 53.1% |
| CCCc1ccc(OCC(O)CN2CCCC2)cc1 (stereo not given) | inconclusive: 23.8% |
| CNC[C@@H]1OCCCC[C@@H](C)Oc2ccc(NC(=O)c3ccccc3)cc2C(=O)N([C@H](C)CO)C[C@@H]1C | inconclusive: 82.4% |
| COc1ccc(C(NC(=O)C2C3C=CC(C3)C2C(=O)O)c2ccccc2)cc1 (stereo not given) | inconclusive: 25.7% |
| CCS(=O)(=O)N1CC2(C1)[C@H](c1ccccc1)[C@H](CO)N2C(=O)C1CCC1 | inconclusive: 37.4% |
| CN1C(=O)[C@@](O)(c2cn(C)c3ccccc23)c2cc(F)ccc21 | inactive: 4.54% |
| COc1ccc2c3c([nH]c2c1)[C@H](CO)N(C)CC31CCN(C(=O)c2cccnc2)CC1 | inconclusive: 71.8% |
| CC(=O)c1cccc(NC(=S)N2CCN(S(=O)(=O)c3ccc(F)cc3)CC2)c1 | inconclusive: 73.3% |
| O=S(=O)(c1ccc(Br)c2ccccc12)N1CCOCC1 | inconclusive: 20.6% |
| COc1ccc2oc(C(=O)OC(C)C(=O)N3CCC(C)CC3)c(C)c2c1 (stereo not given) | active: 34.1% |
| NC(=NCCc1c[nH]c2ccccc12)NS(=O)(=O)c1ccc(F)cc1 | inactive: 5.43% |
| CC(=O)N1CCN(C(=O)c2ccc(NS(=O)(=O)c3cc(C)ccc3C)cc2)CC1 | inactive: -0.478% |
| C[C@@H]1CCCCO[C@H](CN(C)C(=O)c2ccncc2)[C@@H](C)CN([C@H](C)CO)C(=O)c2cc(NC(=O)NC3CCCCC3)ccc2O1 | inactive: -11.2% |
| O=C(CCC(=O)c1ccc(-c2ccccc2)cc1)Nc1cccnc1 | inconclusive: 21.9% |
| COCCCN(C(=O)C1=COCCO1)c1c(N)n(Cc2ccccc2)c(=O)[nH]c1=O | inconclusive: 29.6% |
| CC(=O)c1cc2c(cc1NC(=O)C1CCC1)OCO2 | inconclusive: 27.4% |
| C/C=C/c1cccc(-c2nc(C(=O)N3CCN(C)CC3)cc3c2[C@H](CCO)N(C(=O)NC(C)C)C3)c1 | inactive: -5.29% |
| CCN(CC)S(=O)(=O)c1ccc(NCCc2ccccn2)nc1 | inactive: -5.48% |
| O=C(CSc1ccc(-c2cccnc2)nn1)Nc1ccc(Br)cc1 | active: 30.4% |
| COc1ccc(Cl)cc1-c1nc(SCC(=O)NC2CCS(=O)(=O)C2)n[nH]1 (stereo not given) | inconclusive: 27% |

Ordered by molar mass (low to high): 3 of the compounds above.

| Structure (SMILES) | CPE inhibition |
| --- | --- |
| O=C(CCC(=O)c1ccc(-c2ccccc2)cc1)Nc1cccnc1 | inconclusive: 21.9% |
| CC(=O)c1cccc(NC(=S)N2CCN(S(=O)(=O)c3ccc(F)cc3)CC2)c1 | inconclusive: 73.3% |
| CNC[C@@H]1OCCCC[C@@H](C)Oc2ccc(NC(=O)c3ccccc3)cc2C(=O)N([C@H](C)CO)C[C@@H]1C | inconclusive: 82.4% |

Going on with the list.

| Structure (SMILES) | CPE inhibition |
| --- | --- |
| CC(C)NC(=O)N1CC[C@@H]2[C@H]1c1cc(Br)ccc1N(C)[C@@H]2CO | active: 108% |
| Cn1cnc(S(=O)(=O)N[C@H]2CC[C@@H](CC(=O)Nc3ccc(-c4ccccc4)cc3)O[C@H]2CO)c1 | inconclusive: 25.1% |
| CCC(C)[C@H](NC(=O)N1CCC(Cc2ccccc2)CC1)C(=O)O (stereo not given in full) | inconclusive: 30% |
| COc1ccc(C(CCN2CCN(c3ccccc3)CC2)c2c(OC)cc(OC)c3c(-c4ccccc4)cc(=O)oc23)cc1 (stereo not given) | active: 58.9% |
| COC(=O)C1CCN(C(=O)c2cc(-c3ccco3)nc3ccccc23)CC1 | inconclusive: 57.6% |
| CCC(=O)Nc1cc2c3c(c1)CCC(=O)N3CCC2 | inconclusive: 24.9% |
| CCN1[C@@H]2c3ccc(-c4cccc(F)c4)c(=O)n3C[C@@H]2[C@@H](CO)[C@@H]1C(=O)N(C)C | inactive: -0.273% |
| CCc1ccc(N(CC(=O)NC(C)(C)C)C(=O)CNC(=O)c2cccs2)cc1 | inconclusive: 26% |
| O=S(=O)(c1ccccc1F)N1CC[C@@H]2[C@H]1c1cc(-c3ccc(F)cc3)ccc1N[C@@H]2CO | inconclusive: 32.7% |
| O=S(=O)(NC1c2cccc3cccc(c23)C1Sc1ncccn1)c1ccccc1 (stereo not given) | inactive: 2.35% |
| COC(=O)C[C@@H]1C[C@H]2c3cc(NS(=O)(=O)c4ccccc4)ccc3O[C@H]2[C@@H](CO)O1 | inconclusive: 26.7% |
| COC(=O)C1=C(COc2ccccc2)NC(=O)NC1c1ccc(Br)cc1 (stereo not given) | inconclusive: 62.8% |
| CCOc1c(N2CCOCC2)c(=O)c1=O | inconclusive: 30% |
| COc1cccc(-c2nnc(NC(=O)c3cccc(F)c3)o2)c1 | inconclusive: 59.1% |
| C/C=C/c1ccc([C@H]2[C@@H](CO)N3C(=O)CN(S(=O)(=O)c4cccc(F)c4)C[C@@H]23)cc1 | active: 43.1% |
| Cc1ccc(S(=O)(=O)NCCC(=O)NCCCSc2ccccc2)cc1 | inconclusive: 21.3% |
| CS(=O)(=O)N1[C@H](CO)[C@@H](c2ccc(C#Cc3cccc(F)c3)cc2)[C@@H]1C#N | inconclusive: 36.1% |
| NC(Cc1ccc(F)cc1)c1csc(Nc2nccc(C(F)(F)F)n2)n1 (stereo not given) | inconclusive: 35.8% |
| COc1ccccc1S(=O)(=O)N(C)C[C@H]1Oc2cc(/C=C/c3ccccc3)ccc2S(=O)(=O)N([C@H](C)CO)C[C@@H]1C | inconclusive: -9.15% |
| C=CCOc1cccc(C(=O)Nc2ncn[nH]2)c1 | inconclusive: 21.3% |
| C/C(=N\NC(=O)c1ccc(Cl)cc1)c1cccnc1 | inconclusive: 20.2% |
| CCC1(c2ccc(F)cc2)NC(=O)NC1=O (stereo not given) | inactive: 5.22% |
| CCOc1ccc(OCCC(=O)N2CCN(S(=O)(=O)c3ccc(OCC)cc3)CC2)cc1 | inconclusive: 36.5% |
| Cc1ccc(S(=O)(=O)N(C)CC(=O)NCCCn2nc(C)cc2C)cc1 | inconclusive: 27.9% |
| C/C=C/c1ccc([C@H]2[C@@H](CO)N(CC3CCOCC3)C23CN(S(=O)(=O)CC)C3)cc1 | active: 27.3% |
